# Some of the results follow. These are further read-outs of the screen, such as a control signal, another cell line or another target. No call is given for them. Most of these compounds were active or inconclusive in the main read-out, so they are no random draw. The note in brackets gives the kind of curve behind each potency; many fits are weak.
# Assay: qHTS Assay for Modulators of Lamin A Splicing
# Conditions: HeLa LMNA splicing GFP/RFP minigene ratio, 48 h
# Outline: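 S3 HeLa cells stably expressing lamin A-EGFP splicing minigene plus DsRed2, 600 cells/well, 48 h compound exposure at 37C. Laser-scanning cytometry; analysed as GFP (500-530 nm)/RFP (575-640 nm) total intensity ratio; 0.5% DMSO vehicle.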
# [1] = measured here: RFP viability control channel
# [2] = measured here: GFP splicing reporter channel
SMILES,AC50 [1],AC50 [2]
C/C(CC(=O)Nc1ccc(Cl)c(C(F)(F)F)c1)=N\NC(=O)c1cc2ccccc2cc1O,"15.8 µM [rising, partial curve]",–
c1ccc2sc(NCC3CCCO3)nc2c1 (stereo unspecified),–,"0.00891 µM [falling, full curve, poor fit]"
Cc1ccc(NC(=O)c2c(Nc3ccccc3C)sc(C(=O)c3ccccc3)c2N)cc1,"15.8 µM [rising, single point]",–
O=[N+]([O-])c1ccc(C[n+]2cccc3ccccc32)cc1,–,"17.8 µM [rising, partial curve, poor fit]"
O=C(Cc1ccc([N+](=O)[O-])cc1)Nc1cccc(C(F)(F)F)c1,"3.16 µM [rising, partial curve, poor fit]",–
Cc1nnc(SCC(C)C)[nH]c1=O,"0.794 µM [falling, full curve]",–
CCCCCCCCn1c2c(c(=N)c3c1CCC3)CCCC2,"25.1 µM [falling, single point]",–
Cc1cc(O)c(C(c2ccc(F)cc2)N2CCCCC2)c(=O)n1Cc1ccco1 (stereo unspecified),–,"0.0224 µM [rising, full curve, poor fit]"
CCc1ccc(-n2nc(C)c3c(C(=O)Nc4cccc(C(F)(F)F)c4)cc(C)nc32)cc1,"22.4 µM [rising, single point]","35.5 µM [rising, single point]"
CCN(c1ccccc1)S(=O)(=O)c1ccc(NC(=O)c2ccco2)cc1,"20 µM [rising, partial curve]","14.1 µM [rising, partial curve]"
COc1ccc(-c2csc(NC(=S)NC(=O)c3cccs3)n2)cc1OC,"0.0708 µM [rising, full curve, poor fit]",–
O=c1oc2ccccc2cc1-c1cn2ccccc2n1,"31.6 µM [falling, partial curve]","31.6 µM [falling, single point]"
CCN(CC)c1ccc(CNc2nc3ccccc3n2CCN2CCCCC2)cc1,"15.8 µM [rising, single point]",–
CCN(CC)c1ccc(/C=N/NC(=S)NCc2ccccc2)c(O)c1,"20 µM [rising, partial curve]","11.2 µM [rising, partial curve, poor fit]"
Cn1c(=O)c(C(=O)COC(=O)c2cc(-c3ccco3)nc3ccccc23)c(N)n(Cc2ccccc2)c1=O,"17.8 µM [rising, single point]",–
CC(=O)NCCc1nc2cc(NC(=O)c3cccs3)ccc2n1C,"0.00316 µM [falling, full curve, poor fit]",–
Cc1cccc(NCC(=O)N/N=C\c2cccc(Oc3ccccc3)c2)c1,"12.6 µM [rising, partial curve]",–
CCc1nc(SCC(=O)OC(C)C)c2ccccc2n1,"0.794 µM [falling, full curve, poor fit]","0.708 µM [falling, single point]"
N#Cc1ccccc1Sc1ccccc1C(=O)Nc1ccc(Br)cc1,"6.31 µM [falling, partial curve]",–

SMILES,AC50 [1],AC50 [2]
CCC(=O)NC(c1ccccc1OC)c1ccc2cccnc2c1O (stereo unspecified),"35.5 µM [rising, single point]",–
O=C(NNC(=O)c1ccc([N+](=O)[O-])o1)c1ccccc1,"35.5 µM [falling, single point]","35.5 µM [falling, single point]"
CCc1ccc(-c2nn(CC(=O)NC3CCCC3)c3c2cnc2ccc(C)cc23)cc1,"2.51 µM [falling, partial curve, poor fit]",–
COc1ccc(-c2nc3n(n2)C(=O)CC(c2ccco2)S3)cc1 (stereo unspecified),"35.5 µM [rising, single point]","35.5 µM [rising, single point]"
CCC(CC)C(=O)Nc1cccc(-c2nc3cccnc3s2)c1C,"17.8 µM [rising, single point]",–
Cc1nn(-c2ccccc2)c(Cl)c1/C=C1\SC(=S)NC1=O,"22.4 µM [rising, single point]",–
O=C(/C=C/c1cccs1)c1ccc(NC(=O)c2ccccc2F)cc1,"12.6 µM [rising, partial curve]","14.1 µM [rising, single point]"
COc1cccc(CNC(=S)NC2CCCC2)c1,"35.5 µM [rising, single point]",–
FC(F)(F)c1ccccc1-n1ccnc1,"22.4 µM [rising, partial curve, poor fit]","5.01 µM [rising, single point]"
CCc1ccccc1NC(=O)CN(c1ccc(OC)cc1OC)S(=O)(=O)c1ccccc1[N+](=O)[O-],"8.91 µM [falling, partial curve]","5.62 µM [falling, single point]"
CC1=C(C(=O)N2CCc3ccccc32)C2(CCC(C)CC2)OC1=O (stereo unspecified),"31.6 µM [rising, single point]","31.6 µM [rising, single point]"
CCN(CC)C(=O)c1ccc2nc3ccccc3nc2c1,"31.6 µM [rising, single point]","17.8 µM [rising, single point]"
O=C(Nc1cn(-c2ccccc2)nc1-c1ccc(Cl)cc1)c1ccccc1,"3.98 µM [falling, partial curve]","3.98 µM [falling, partial curve, poor fit]"
O=C(N/N=C\c1cccc(F)c1)c1ccc(Cn2cc(Br)c([N+](=O)[O-])n2)o1,"0.501 µM [falling, full curve, poor fit]",–
CCCCN(Cc1ccccc1)S(=O)(=O)c1cc(Br)cc2c1N(C(C)=O)C(C)C2 (stereo unspecified),"12.6 µM [rising, single point]","11.2 µM [rising, single point]"
CCc1nc2n[nH]c(N)c2c2c1CSC(C)(C)C2,"35.5 µM [rising, single point]",–
Cc1ccc(CNC(=O)CCC2CCCN(C(=O)CCC(F)(F)F)C2)o1 (stereo unspecified),"3.55 µM [falling, partial curve]","5.62 µM [falling, single point]"
CC(C)(C)C1CCC(=NNC(=S)NCc2ccccc2)CC1 (stereo unspecified),"17.8 µM [rising, single point]","31.6 µM [rising, single point]"
COc1ccc2[nH]cc(CCNc3nc(-c4ccoc4)nc4ccccc34)c2c1,–,"35.5 µM [falling, single point]"

# Single records, as listed above.
# O=C(Cc1ccc([N+](=O)[O-])cc1)Nc1cccc(C(F)(F)F)c1 is listed as AC50 [1]: 3.16 µM [rising, partial curve, poor fit]
# CCC(CC)C(=O)Nc1cccc(-c2nc3cccnc3s2)c1C is listed as AC50 [1]: 17.8 µM [rising, single point]
# COc1ccc(-c2nc3n(n2)C(=O)CC(c2ccco2)S3)cc1 (stereo unspecified) is listed as AC50 [1]: 35.5 µM [rising, single point]; AC50 [2]: 35.5 µM [rising, single point]

# Next part.

SMILES,AC50 [1],AC50 [2]
CC1=Nc2ccccc2N=C(NC(=O)CSc2nnnn2-c2ccccc2)C1c1ccccc1 (stereo unspecified),–,"14.1 µM [rising, single point]"
CCCCn1c(SCC(=O)c2ccc(O)c(O)c2)nc2ccsc2c1=O,"20 µM [rising, single point]",–
O=C(Nc1ccccc1)c1cc(S(=O)(=O)N2CCSCC2)ccc1Cl,"35.5 µM [rising, single point]",–
Cc1ccc(N(Cc2ccc(C(=O)NCCSc3ccccn3)cc2)S(C)(=O)=O)cc1C,"12.6 µM [rising, partial curve]",–
CCC(=O)N(Cc1ccco1)Cc1cc2cccc(C)c2n2nnnc12,–,"0.01 µM [falling, full curve, poor fit]"
COc1cc(OC)cc(C(=O)OCCNC(=O)Cn2cnc3c2c(=O)n(C)c(=O)n3C)c1,–,"0.00794 µM [rising, partial curve, poor fit]"
O=C(Nc1nnc(-c2cccs2)o1)c1cccc(Oc2ccccc2)c1,"4.47 µM [rising, full curve, poor fit]",–
CC1CCCC(n2c(=S)[nH]c3ccccc3c2=O)C1C (stereo unspecified),"35.5 µM [falling, single point]","35.5 µM [falling, single point]"
CN1CCN(S(=O)(=O)c2cccc(C(=O)NC3CCCc4ccccc43)c2)CC1 (stereo unspecified),–,"35.5 µM [rising, single point]"
COc1ccc(-c2cc(C(=O)N3CCN(c4ncccn4)CC3)c3ccccc3n2)c(OC)c1,"6.31 µM [rising, full curve, poor fit]","0.00891 µM [rising, full curve, poor fit]"
CSc1ccc(CN2CCC(CO)(Cc3ccc(Cl)cc3)CC2)cc1,"22.4 µM [falling, partial curve]","12.6 µM [falling, partial curve]"
O=C(Nc1ccc2oc(-c3cccc4ccccc34)nc2c1)c1ncn[nH]1,"35.5 µM [falling, single point]",–
COC(=O)C1=C(C(=O)OC)[C@@H]2N(C)c3ccc(OC)cc3[C@@]23C[C@@H](C(=O)OC)N(C(=O)c2cc(C)oc2C)C3=N1,–,"0.000794 µM [rising, full curve, poor fit]"
Cn1c(SCC(=O)N2CCCCCC2)nc2c([nH]c3ccccc32)c1=O,"0.2 µM [rising, full curve, poor fit]",–
CN(C)CCCN(C(=O)CCSc1ccccc1)c1nc2cc3c(cc2s1)OCO3,"3.16 µM [falling, partial curve, poor fit]",–
CSc1ccc(CCNc2ncnc3onc(C)c23)cc1,–,"17.8 µM [falling, partial curve]"
COCCCNCC1C(Oc2ccc(Cl)cc2)C(=O)N1c1ccccc1C (stereo unspecified),"12.6 µM [rising, single point]",–
CCOC(=O)c1ccc(NS(=O)(=O)c2cc(C)ccc2OC)cc1,"11.2 µM [rising, partial curve]","3.55 µM [rising, partial curve]"

# From PubChem BioAssay AID1487 (National Center for Advancing Translational Sciences (NCATS), 2009)
